In publication PMC10953090 one finds binding data, which are given here for 1 molecule.

Protein sequences, listed by entry. Tags and fused reporters are not part of them. Residues count along the entry.
UniProt P07174, residues 30-425: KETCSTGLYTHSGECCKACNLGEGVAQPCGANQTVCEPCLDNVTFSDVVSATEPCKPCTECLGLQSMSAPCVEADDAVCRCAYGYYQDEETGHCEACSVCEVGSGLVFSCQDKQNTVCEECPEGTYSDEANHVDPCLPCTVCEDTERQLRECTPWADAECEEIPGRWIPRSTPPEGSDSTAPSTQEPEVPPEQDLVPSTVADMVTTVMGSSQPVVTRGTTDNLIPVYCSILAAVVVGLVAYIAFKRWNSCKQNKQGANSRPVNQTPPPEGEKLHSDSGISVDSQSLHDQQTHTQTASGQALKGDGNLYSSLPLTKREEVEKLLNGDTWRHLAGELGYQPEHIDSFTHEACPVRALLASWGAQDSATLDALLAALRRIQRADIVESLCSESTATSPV

These are yes or no findings as the source states them, for the method shown. Binding seen in cells or lysates may run through a third protein. Some results given as binding are weak or reduced against the parent protein; the word gives no strength.

This assay addresses p75 neurotrophin receptor (rat (endogenous in rat BMSCs)) (UniProt P07174). The assay can be described thus: co-IP; rat BMSC lysate in IP lysis buffer; anti-p75NTR, anti-sortilin or anti-rabbit IgG overnight, Protein A/G agarose beads 2 h at 4 °C, four washes, Western blot.

B1: sortilin (receptor, UniProt O54861 74-825)
chain: RRGAPAEDQDCGRLPDFIAKLTNNTHQHVFDDLSGSVSLSWVGDSTGVILVLTTFQVPLVIVSFGQSKLYRSEDYGKNFKDITNLINNTFIRTEFGMAIGPENSGKVILTAEVSGGSRGGRVFRSSDFAKNFVQTDLPFHPLTQMMYSPQNSDYLLALSTENGLWVSKNFGEKWEEIHKAVCLAKWGPNNIIFFTTHVNGSCKADLGALELWRTSDLGKTFKTIGVKIYSFGLGGRFLFASVMADKDTTRRIHVSTDQGDTWSMAQLPSVGQEQFYSILAANDDMVFMHVDEPGDTGFGTIFTSDDRGIVYSKSLDRHLYTTTGGETDFTNVTSLRGVYITSTLSEDNSIQSMITFDQGGRWEHLQKPENSKCDATAKNKNECSLHIHASYSISQKLNVPMAPLSEPNAVGIVIAHGSVGDAISVMVPDVYISDDGGYSWAKMLEGPHYYTILDSGGIIVAIEHSNRPINVIKFSTDEGQCWQSYVFSQEPVYFTGLASEPGARSMNISIWGFTESFLTRQWVSYTIDFKDILERNCEENDYTTWLAHSTDPGDYKDGCILGYKEQFLRLRKSSVCQNGRDYVVAKQPSICPCSLEDFLCDFGYFRPENASECVEQPELKGHELEFCLYGKEEHLTTNGYRKIPGDRCQGGMNPAREVKDLKKKCTSNFLNPKKQNSKSSSVPIILAIVGLMLVTVVAGVLIVKKYVCGGRFLVHRYSVLQQHAEADGVEALDTASHAKSGYHDDSDEDLLE
Consider B1, for which the binding result is given as “binds”.
